Assay results reported in PubChem BioAssay AID445 (National Center for Advancing Translational Sciences (NCATS), 2006).
Some of the results follow. The main result of the screen is listed elsewhere. These columns were measured beside it and carry no call. Compounds called inactive in the main read-out are mostly missing here. The note in brackets gives the kind of curve behind each potency; many fits are weak.

Assay: IkB Signaling
Conditions: ABC-DLBCL IkBa-CBG/CBR dual luciferase ratio (green luciferase fused to IkBa over red control in OCI-Ly3 lymphoma cells), 4 h
How it was run: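 Luminescence ratio of IκBα-fused green versus native red beetle luciferase in OCI-Ly3 cells, 4 h post-doxycycline with compound; red signal alone, scaled from basal (0%) to zero light (-100%), flagged nonspecific or cytotoxic effects.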

[1] = measured here: control luc red channel unless noted

Q: Which AC50 [1] does the source give for `O=c1c2oc3ccccc3c2n(Cc2cccc(F)c2)c(=O)n1Cc1ccc2c(c1)OCO2` here?
A: 6.31 µM [falling, partial curve]

Q: With `C=Cc1ccc(Cn2c(SCC(=O)N3CCN(c4ccc(F)cc4)CC3)nc3ccccc32)cc1` as the compound, how does the AC50 [1] read?
A: 39.8 µM [falling, single point]

Q: Which AC50 [1] does the source give for `CCCCNc1cc(C)nc(NCc2ccccc2)n1` here?
A: 25.1 µM [falling, partial curve]

Q: For `CCOC(=O)c1ccccc1NC(=O)N1CCCn2nc(C)cc21`, which AC50 [1] is on record?
A: 39.8 µM [falling, single point]

Q: For `Cc1cc(C)cc(N2C(=O)CSC23C(=O)N(CC(=O)NC2CCCCC2)c2ccccc23)c1` (stereo unspecified), which AC50 [1] is on record?
A: 12.6 µM [falling, partial curve]

Q: For `CCOC(=O)c1cnn(-c2cccc(Cl)c2)c1N`, which AC50 [1] is on record?
A: 3.98 µM [rising, partial curve]

Q: Which AC50 [1] does the source give for `COc1ccc(C(=O)Nc2cccc(OCc3cc(=O)n4c5c(sc4n3)CCCC5)c2)cc1OC` here?
A: 2 µM [falling, full curve]

Q: Which AC50 [1] does the source give for `COc1ccccc1NC(=O)CN1CCN(CC(=O)Nc2ccc(F)cc2)CC1` here?
A: 7.94 µM [falling, partial curve]

Q: Which AC50 [1] does the source give for `CCOC(=O)c1c(C)[nH]c(C(=O)OCC(=O)N2c3ccccc3CC2C)c1C` (stereo unspecified) here?
A: 15.8 µM [falling, partial curve]

Q: Which AC50 [1] does the source give for `COc1ccc(CCNC(=O)CCc2c(C)nc3cc(-c4ccc(Cl)cc4)nn3c2C)c(OC)c1` here?
A: 0.501 µM [falling, full curve]

Q: For `O=C(CCc1ccccc1)N(Cc1cccnc1)c1nc2ccc(F)cc2s1`, which AC50 [1] is on record?
A: 39.8 µM [falling, single point]

Q: For `O=C(CSc1nnnn1-c1ccccc1)CC(=O)Nc1ccc(Cl)cc1`, which AC50 [1] is on record?
A: 0.0501 µM [falling, full curve]

Q: Which AC50 (measured here: IkB-luc green channel) does the source give for `Cc1csc(NC(=O)CSc2nnc(-c3ccncc3)o2)n1` here?
A: 1.26 µM [rising, partial curve]

Q: What about the AC50 (measured here: control luc red channel) of the same compound?
A: 15.8 µM [falling, partial curve]

Q: With `Cc1nc2ccc3nc(NC(=O)C4COc5ccccc5O4)sc3c2s1` (stereo unspecified) as the compound, how does the AC50 [1] read?
A: 3.16 µM [falling, full curve, poor fit]

Q: With `CCOC(=O)C1CCCN(C(=O)c2ccccc2NC(=O)c2nsc3ccccc23)C1` (stereo unspecified) as the compound, how does the AC50 [1] read?
A: 10 µM [falling, partial curve, poor fit]

Q: With `Cn1c(CN2CCCCC2)nc2cc(NC(=O)c3cccs3)ccc21` as the compound, how does the AC50 [1] read?
A: 39.8 µM [falling, single point]

Q: With `Cc1ccccc1Cn1nnc2c(=O)[nH]c(C3CCCN(C(=O)c4ccc(C(C)(C)C)cc4)C3)nc21` (stereo unspecified) as the compound, how does the AC50 [1] read?
A: 25.1 µM [falling, single point]

Q: For `CCOc1ccc(N2CC(NC(=O)Cc3cccs3)CC2=O)cc1` (stereo unspecified), which AC50 [1] is on record?
A: 6.31 µM [falling, single point]

Q: For `Cc1ccc(C)c(CSc2cn(CC(=O)N3CCCC3)c3ccccc23)c1`, which AC50 [1] is on record?
A: 12.6 µM [falling, partial curve]

Q: With `CCN(CC)C(=O)Cn1c(=O)n(-c2ccc(Cl)cc2)c(=O)c2c3c(sc21)CCCCC3` as the compound, how does the AC50 [1] read?
A: 15.8 µM [falling, partial curve]

Q: With `COc1ccc(NS(=O)(=O)c2ccc3c(c2)CC(C)N3C(=O)C2CCC2)cc1OC` (stereo unspecified) as the compound, how does the AC50 [1] read?
A: 25.1 µM [falling, single point]

Q: For `Cc1ccc(NS(=O)(=O)c2ccc3nc(-c4ccccc4)[nH]c3c2)cc1Cl`, which AC50 [1] is on record?
A: 10 µM [falling, partial curve]

Q: For `COc1ccc(Br)cc1CNC(=O)C1CCN(c2nnc(-n3cccc3CNc3ccc(C)cc3)s2)CC1`, which AC50 [1] is on record?
A: 5.01 µM [falling, full curve]

Q: Which AC50 [1] does the source give for `CSc1nn(CC(=O)Nc2ccc(C)cc2C)c(N)c1S(=O)(=O)c1ccc(Cl)cc1` here?
A: 20 µM [falling, partial curve]

Q: With `O=S(=O)(Nc1nc2n(n1)C(c1ccc(F)cc1)C=C(c1ccc(Cl)cc1)N2)c1ccccc1` (stereo unspecified) as the compound, how does the AC50 [1] read?
A: 39.8 µM [falling, single point]

Q: For `COc1cc2c(C(=O)N3CCN(c4ccc(F)cc4)CC3)cn(CC(C)C)c(=O)c2cc1OC`, which AC50 [1] is on record?
A: 3.16 µM [falling, full curve]

Q: Which AC50 [1] does the source give for `CCOc1ccccc1NC(=O)C1CCCN(S(=O)(=O)c2cccs2)C1` (stereo unspecified) here?
A: 39.8 µM [falling, single point]

Q: With `O=c1c2c(nc3cc(-c4ccc(F)cc4)[nH]n13)CCCC2` as the compound, how does the AC50 [1] read?
A: 20 µM [falling, single point]

Q: Which AC50 [1] does the source give for `COc1ccc(N2CCN(C(=O)c3ccc4c(c3)CCN4S(=O)(=O)c3ccccc3)CC2)cc1` here?
A: 20 µM [falling, single point]

Q: With `Cc1c(C(=O)N(C)Cc2ccccc2)sc2nc(-c3ccc(F)cc3)cn12` as the compound, how does the AC50 [1] read?
A: 15.8 µM [falling, partial curve]

Q: With `COc1cccc(-c2cc(C(=O)NCc3ccccc3)no2)c1` as the compound, how does the AC50 [1] read?
A: 10 µM [falling, partial curve]

Q: With `CCOC(=O)CNC(=O)CSc1nnc(-c2ccco2)n1Cc1ccco1` as the compound, how does the AC50 [1] read?
A: 5.01 µM [falling, full curve, poor fit]

Q: For `CC(NCc1ccc2c(c1)n(C)c(=O)n2C)c1ccccc1` (stereo unspecified), which AC50 [1] is on record?
A: 3.16 µM [rising, full curve]

Q: With `Cc1ccc(-c2cn3c(n2)sc2cc(C(=O)NC4CCCCCC4)ccc23)cc1` as the compound, how does the AC50 [1] read?
A: 12.6 µM [falling, partial curve]

Q: For `COCCCNC(=O)C1CCN(Cc2cc3ccccc3n2Cc2cccc(Cl)c2)CC1`, which AC50 [1] is on record?
A: 20 µM [falling, partial curve]

Q: With `Cc1cc(C)n2nc(CNC(=O)c3cccc(N(C)C)c3)nc2n1` as the compound, how does the AC50 [1] read?
A: 2 µM [rising, full curve, poor fit]

Q: Which AC50 [1] does the source give for `Cc1ccc(S(=O)(=O)Nc2ccc(Br)cc2/C=N/n2cnnc2)cc1` here?
A: 20 µM [falling, single point]

Q: With `Cc1noc2ncnc(NCCc3ccccc3)c12` as the compound, how does the AC50 [1] read?
A: 12.6 µM [falling, single point]

Q: With `CCOCCc1nn2c(=O)cc(COC(=O)c3ccccc3NC(=O)c3ccccc3F)nc2s1` as the compound, how does the AC50 [1] read?
A: 10 µM [falling, single point]

Q: Which AC50 [1] does the source give for `CCOc1ccc(C(=O)c2cn(CC(=O)Nc3ccc(OC)cc3)c3cc4c(cc3c2=O)OCO4)cc1` here?
A: 10 µM [rising, partial curve]
